5 molecules from paper doi:10.1101/2024.02.12.579961 (bioRxiv, 2024) can be followed below.

Experiment [1] deals with IAA3/SHY2 Cys187Ser (Arabidopsis thaliana) (UniProt Q38822). Kind of experiment: non-reducing SDS-PAGE.
For experiment [2], the target named is T1, TOPLESS (TPL) transcriptional co-repressor (UniProt Q94AI7).
T1 sequence: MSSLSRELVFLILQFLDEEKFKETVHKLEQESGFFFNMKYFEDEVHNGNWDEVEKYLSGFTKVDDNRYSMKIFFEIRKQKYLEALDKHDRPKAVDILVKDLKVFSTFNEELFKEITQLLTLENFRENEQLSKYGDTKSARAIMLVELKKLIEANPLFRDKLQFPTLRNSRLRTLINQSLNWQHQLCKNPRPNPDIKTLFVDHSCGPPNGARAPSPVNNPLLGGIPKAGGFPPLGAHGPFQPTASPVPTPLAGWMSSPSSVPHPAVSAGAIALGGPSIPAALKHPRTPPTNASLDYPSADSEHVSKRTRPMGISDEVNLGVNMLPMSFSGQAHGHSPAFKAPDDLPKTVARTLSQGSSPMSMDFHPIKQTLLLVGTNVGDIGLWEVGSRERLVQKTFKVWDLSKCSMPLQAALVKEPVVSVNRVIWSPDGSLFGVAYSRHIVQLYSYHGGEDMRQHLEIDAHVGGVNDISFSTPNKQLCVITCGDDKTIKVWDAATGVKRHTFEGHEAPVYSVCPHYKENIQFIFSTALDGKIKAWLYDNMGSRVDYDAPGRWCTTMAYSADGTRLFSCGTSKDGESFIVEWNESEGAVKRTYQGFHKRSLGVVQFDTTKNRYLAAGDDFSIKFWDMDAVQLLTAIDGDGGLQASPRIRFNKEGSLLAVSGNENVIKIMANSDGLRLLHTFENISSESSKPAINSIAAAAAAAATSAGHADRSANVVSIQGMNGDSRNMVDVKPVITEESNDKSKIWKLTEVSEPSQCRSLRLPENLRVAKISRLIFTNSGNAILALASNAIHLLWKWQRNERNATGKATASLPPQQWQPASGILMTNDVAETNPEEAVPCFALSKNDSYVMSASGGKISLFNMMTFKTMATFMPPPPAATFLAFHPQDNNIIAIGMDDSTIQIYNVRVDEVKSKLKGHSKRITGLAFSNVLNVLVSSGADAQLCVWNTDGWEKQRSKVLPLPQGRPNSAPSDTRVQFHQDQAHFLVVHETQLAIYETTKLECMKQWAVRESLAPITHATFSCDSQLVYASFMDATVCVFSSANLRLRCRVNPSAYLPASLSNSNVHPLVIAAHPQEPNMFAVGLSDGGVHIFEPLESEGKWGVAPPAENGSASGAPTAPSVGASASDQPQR
Kind of experiment: co-IP.

The target of the next experiment is T2, TIR1-GFP (UniProt Q570C0).
T2 sequence: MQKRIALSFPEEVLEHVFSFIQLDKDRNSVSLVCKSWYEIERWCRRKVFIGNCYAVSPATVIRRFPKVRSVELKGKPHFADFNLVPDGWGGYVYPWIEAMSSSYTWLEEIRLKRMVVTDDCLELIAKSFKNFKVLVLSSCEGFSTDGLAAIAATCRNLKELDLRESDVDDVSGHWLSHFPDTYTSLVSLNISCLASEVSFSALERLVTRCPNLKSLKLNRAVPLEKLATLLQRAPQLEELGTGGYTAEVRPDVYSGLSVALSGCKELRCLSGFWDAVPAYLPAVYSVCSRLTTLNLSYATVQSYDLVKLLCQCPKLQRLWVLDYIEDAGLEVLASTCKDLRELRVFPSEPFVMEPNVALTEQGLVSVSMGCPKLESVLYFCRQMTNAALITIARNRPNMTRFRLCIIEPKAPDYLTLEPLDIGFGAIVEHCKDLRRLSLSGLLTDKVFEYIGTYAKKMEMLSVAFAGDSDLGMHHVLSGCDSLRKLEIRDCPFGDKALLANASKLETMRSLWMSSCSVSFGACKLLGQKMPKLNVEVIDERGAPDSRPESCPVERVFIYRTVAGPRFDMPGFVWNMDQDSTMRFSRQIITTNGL
The experiment can be described thus: co-IP.

Another experiment addresses T3, ARF7-GFP (wild type) (UniProt P93022).
T3 sequence: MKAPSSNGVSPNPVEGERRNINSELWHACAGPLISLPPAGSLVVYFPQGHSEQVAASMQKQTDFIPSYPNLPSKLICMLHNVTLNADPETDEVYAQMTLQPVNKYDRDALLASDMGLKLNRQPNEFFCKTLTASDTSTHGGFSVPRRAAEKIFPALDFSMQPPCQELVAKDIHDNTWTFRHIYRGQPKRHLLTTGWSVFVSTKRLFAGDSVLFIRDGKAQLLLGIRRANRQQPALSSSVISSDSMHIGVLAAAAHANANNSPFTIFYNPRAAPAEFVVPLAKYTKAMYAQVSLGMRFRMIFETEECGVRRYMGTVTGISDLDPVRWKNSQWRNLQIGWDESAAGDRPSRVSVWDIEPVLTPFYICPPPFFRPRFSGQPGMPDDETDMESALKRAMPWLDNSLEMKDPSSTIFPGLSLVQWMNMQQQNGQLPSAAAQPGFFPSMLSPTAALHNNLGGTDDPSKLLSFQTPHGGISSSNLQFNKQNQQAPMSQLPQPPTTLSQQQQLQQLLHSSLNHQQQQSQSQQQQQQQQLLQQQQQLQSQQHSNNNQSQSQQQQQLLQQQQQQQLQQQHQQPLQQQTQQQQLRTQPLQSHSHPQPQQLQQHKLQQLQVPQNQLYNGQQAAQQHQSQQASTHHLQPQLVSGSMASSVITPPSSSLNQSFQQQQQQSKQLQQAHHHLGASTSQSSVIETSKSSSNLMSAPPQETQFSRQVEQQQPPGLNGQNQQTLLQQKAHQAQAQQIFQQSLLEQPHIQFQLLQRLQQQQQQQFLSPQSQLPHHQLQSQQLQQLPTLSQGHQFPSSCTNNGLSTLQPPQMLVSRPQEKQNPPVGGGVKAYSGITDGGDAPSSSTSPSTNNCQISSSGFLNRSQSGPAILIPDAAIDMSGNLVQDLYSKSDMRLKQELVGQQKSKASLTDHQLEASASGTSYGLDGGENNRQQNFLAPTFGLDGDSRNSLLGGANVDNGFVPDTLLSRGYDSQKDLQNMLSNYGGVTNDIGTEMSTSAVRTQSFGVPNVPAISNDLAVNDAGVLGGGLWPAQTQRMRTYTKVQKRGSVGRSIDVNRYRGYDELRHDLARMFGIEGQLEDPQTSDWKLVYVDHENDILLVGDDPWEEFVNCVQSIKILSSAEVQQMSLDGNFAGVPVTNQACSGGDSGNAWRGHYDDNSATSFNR
The experiment can be described thus: co-IP.

The target of experiment [3] is MBP-tagged IAA3/SHY2 (wild type), recombinant (Arabidopsis thaliana) (UniProt Q38822). Kind of experiment: non-reducing SDS-PAGE.
Experiment [4] has as its target HA-WT IAA3/SHY2 expressed in transgenic Arabidopsis thaliana (Arabidopsis thaliana) (UniProt Q38822). The experiment can be described thus: anti-HA immunoprecipitation + non-reducing SDS-PAGE immunoblot. (In general: In western blotting, separated proteins are transferred to a membrane and probed.)
Experiment [5] deals with HA-WT IAA3/SHY2 transiently expressed in Nicotiana benthamiana (Arabidopsis thaliana) (UniProt Q38822). The description is as above.

Residue numbers refer to the chain shown, from its start. Results are given in words; binding and its absence hold for the method and conditions named. For some of these results: Binding seen in cells or lysates may run through a third protein. Some results given as binding are weak or reduced against the parent protein; the word gives no strength. For some of these results: Tags and fused reporters may be left off the sequences shown.

B1: IAA3/SHY2 Cys187Ser (protein, UniProt Q38822 1-189)
chain: MDEFVNLKETELRLGLPGTDNVCEAKERVSCCNNNNKRVLSTDTEKEIESSSRKTETSPPRKAQIVGWPPVRSYRKNNIQSKKNESEHEGQGIYVKVSMDGAPYLRKIDLSCYKGYSELLKALEVMFKFSVGEYFERDGYKGSDFVPTYEDKDGDWMLIGDVPWEMFICTCKRLRIMKGSEAKGLGSGV
For B1, the binding result in experiment [1] is recorded as “binds”.

B2: HA-4C/S IAA3/SHY2 transiently expressed in Nicotiana benthamiana (protein, UniProt Q38822 1-189)
chain: B1 chain with C32S, C112S, C169S
On to B2, for which the binding entry (in experiment [2]; with TIR1-GFP; in the experiment with ARF7-GFP (wild type)) was “binds” each time.

B3: MBP-tagged IAA3/SHY2 (wild type), recombinant (natural protein, Arabidopsis thaliana, UniProt Q38822 1-189, looked up)
chain: B1 chain with S187C
As to B3, in experiment [3], the binding result is reported as “no binding (condition: with 7.5mM DTT)”.

B4: HA-WT IAA3/SHY2 expressed in transgenic Arabidopsis thaliana (protein, UniProt Q38822 1-189)
chain: B1 chain with S187C
Consider B4, for which, in experiment [4], the binding result was “binds”.

B5: HA-WT IAA3/SHY2 transiently expressed in Nicotiana benthamiana (protein, UniProt Q38822 1-189)
chain: B1 chain with S187C
On to B5, for which the binding entry (in experiment [5]; in experiment [2]; with TIR1-GFP; with ARF7-GFP (wild type)) was “binds” in each case.
